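A cell-based FRET test of anthrax lethal toxin entry, tracked through the 460 nm emission signal; the cell line is not named here.
Each compound was tested as a concentration series from about 0.0005 to 40 µM.
The number is the fitted AC50 of the 460 nm signal alone; lower values mean a more potent effect. A falling signal goes with compounds filed as inhibitors or cytotoxic, a rising one with activators or fluorescent compounds (inferred from the filed classes).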

Values are in µM.
Common to all entries: measured here: 460 nm channel.
Part of the compounds only, not a random draw; the main read-out is not listed here.
Potencies fitted to partial, single-point or poorly fitting curves are rough.
The first word of each remark tells which way the curve ran; it can be opposite to the aim of the assay.

| # | SMILES | AC50 (µM) | curve as filed |
|---|---|---|---|
| 1 | `C=CCNC(=O)CCNS(=O)(=O)c1ccc(Br)cc1` | 1.995 | rising, partial curve, poor fit |
| 2 | `CCN(CC)CCCNC(=O)c1c(O)c2c([nH]c1=O)CCCC2` | 12.59 | falling, partial curve |
| 3 | `O=C(c1cccs1)N(CCO)Cc1cc2cc3c(cc2[nH]c1=O)OCCO3` | 0.007943 | rising, full curve, poor fit |
| 4 | `Cn1c(C2=C(O)CN(c3ccc4c(c3)OCCO4)C2=N)nc2ccccc21` | 31.62 | rising, single point |
| 5 | `COc1ccc(C(C)=O)c2c1OCCO2` | 0.2512 | falling, full curve, poor fit |
| 6 | `O=C(CN1CCOCC1)NCc1ccccc1` | 0.003981 | falling, full curve, poor fit |
| 7 | `Fc1ccc(CSc2nnc(-c3cnccn3)n2Cc2ccco2)cc1` | 15.85 | falling, partial curve |
| 8 | `Cc1ccc2nc3c(cc(C#N)c(=O)n3CC3CCCO3)c(=O)n2c1` (stereo not given) | 10 | rising, partial curve |
| 9 | `CCCOc1cccc(C2/C(=C(/O)c3ccc(OC)cc3)C(=O)C(=O)N2CCN(C)C)c1` (stereo not given) | 1.259 | rising, full curve |
| 10 | `COc1cc(/C=C\c2ccc(OC)cc2OC)cc(OC)c1` | 1.995 | falling, full curve |
| 11 | `Cc1ccc2nc(N3CCN(C)CC3)[nH]c2c1` | 0.02512 | falling, full curve, poor fit |
| 12 | `CN(C)CCCN1C(=O)C(O)=C(C(=O)c2cccs2)C1c1ccccn1` (stereo not given) | 3.981 | falling, partial curve, poor fit |
| 13 | `Cc1ccc(S(=O)(=O)N2CCC(C(=O)NCCN3CCCCCC3)CC2)cc1` | 31.62 | falling, single point |
| 14 | `Cc1cc(C)n(Cc2ccccc2F)c(=O)c1C#N` | 10 | rising, single point |
| 15 | `CCN1c2ccccc2NC2C1C(C(C)=O)C(=O)N2c1ccc(Cl)cc1` (stereo not given) | 19.95 | falling, partial curve |
| 16 | `O/N=C1/CCCSc2ccccc21` | 15.85 | falling, partial curve |
| 17 | `COCCNC(=O)c1cnn2c(C(F)(F)F)cc(-c3ccc4c(c3)OCO4)nc12` | 12.59 | falling, partial curve |
| 18 | `Cn1ccc(C(=O)OCC(=O)c2ccccc2)n1` | 12.59 | rising, single point |
| 19 | `CCCOc1ccc(NC(=O)C2CC(=O)N3CCCN=C3S2)cc1` (stereo not given) | 6.31 | falling, partial curve |
| 20 | `COC(=O)c1ccc(-c2ccc(C(=O)N3CCCN(C)CC3)cc2)cc1` | 25.12 | falling, single point |
| 21 | `Cc1ccc(C)c(NS(=O)(=O)c2ccc(NC(=O)c3ccco3)cc2)c1` | 10 | falling, single point |
| 22 | `COc1ccc(Oc2ncc3nc(-c4cccs4)c(=O)n(CCC#N)c3n2)cc1` | 7.943 | rising, partial curve |
| 23 | `CN1CCC(N(C)CC(=O)Nc2cccc(Oc3ccccc3)c2)CC1` | 1.995 | falling, partial curve |
| 24 | `Cc1cccc(-c2noc(CN(C(=O)c3c(-c4ccccc4Cl)noc3C)C(C)C)n2)c1` | 12.59 | falling, partial curve |
| 25 | `CC1CCN(C(=O)Cn2c(SCC(=O)Nc3nccs3)nc3ccccc32)CC1` | 7.943 | rising, partial curve |
| 26 | `N#Cc1ccc(CN2CC[C@@]3(CCCN(C(=O)c4cnccn4)C3)C2)cc1` | 1 | falling, single point |
| 27 | `CC[C@H]1C(=O)OC[C@H]1Cc1cncn1C` | 7.943 | rising, partial curve, poor fit |
| 28 | `O=C(CSc1nc2sc3c(c2c(=O)n1-c1ccccc1)CCCC3)NCc1ccco1` | 31.62 | falling, single point |

3 of the entries, repeated:

| SMILES | AC50 (µM) | curve as filed |
|---|---|---|
| `Cc1ccc(S(=O)(=O)N2CCC(C(=O)NCCN3CCCCCC3)CC2)cc1` | 31.62 | falling, single point |
| `COC(=O)c1ccc(-c2ccc(C(=O)N3CCCN(C)CC3)cc2)cc1` | 25.12 | falling, single point |
| `COc1ccc(Oc2ncc3nc(-c4cccs4)c(=O)n(CCC#N)c3n2)cc1` | 7.943 | rising, partial curve |

Data taken from PubChem BioAssay AID912, deposited by NCATS (2007).